Values from PubChem BioAssay AID1224826 (NIAID, 2016)

Assay: 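Knock-downs that raise or lower Tnf reporter signal after endotoxin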 (primary screen)
Cells: RAW264.7 G9 macrophages from mouse bearing reporters for p65 (GFP) and the Tnf promoter (mCherry)
Reagents: siRNA pool against mouse genes, 100 nM
Time to read-out: 16 h of LPS stimulation, after 2 days of siRNA transfection
Treatment: bacterial lipopolysaccharide (Salmonella minnesota R595), 10 ng/ml
Detection: 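Imaged Tnf reporter mCherry in nuclei, minus background, normalised per plate to the median and expressed as robust z-scores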
Direction: Tnf reporter robust z-score: higher = stronger Tnf promoter reporter signal after LPS; Tnf reporter intensity: higher = stronger Tnf promoter reporter signal
Call rule: 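a well counts as active at a score of -1.3 or below (Tlr4 knock-down control median) or above 3 (raised signal); controls and wells holding fewer than 50 cells are excluded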
Meaning of the calls: active = Tnf reporter clearly lowered or raised; inactive = no clear change in Tnf reporter
Shown is a random part of about 17,000 deposited reagents. About 1,110 of them (6.6%) count as active. 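Active means lowered or raised reporter signal; replicate intensities are raw and not normalised per plate.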 Entries without a mark were called inactive. Reagents against one gene are numbered here.

no.	gene	pool no.	Tnf reporter robust z-score	fewer than 50 cells in well	Tnf reporter intensity, replicate 1	Tnf reporter intensity, replicate 2
1	Tmcc1	1	-0.76	enough cells in well	132	100
2	Ostf1	1	-0.39	enough cells in well	239	135
3	Pals2	1	1.85	enough cells in well	311	282
4	Pals2	2	0.29	enough cells in well	202	142
5	D830013H23Rik	1	-1.63 (active)	enough cells in well	112	63.7
6	Oxct2a	1		fewer than 50 cells per well; well left out of calls	0	37.5
7	Sec61a2	1	0.56	enough cells in well	140	99
8	Rfx4	1	0.33	enough cells in well	398	191
9	Runx3	1	-0.17	enough cells in well	346	157
10	Or10g3	1	0.41	enough cells in well	190	148
11	Or1x2	1	1.17	enough cells in well	137	82
12	Rhog	1	-0.39	enough cells in well	283	169
13	Muc20	1	-0.59	enough cells in well	166	93.1
14	Tmem45a2	1		fewer than 50 cells per well; well left out of calls	50.8	47
15	Flywch2	1		fewer than 50 cells per well; well left out of calls	123	31.1
16	Or4c11c	1	2.78	enough cells in well	351	302
17	Anp32b	1	3.26 (active)	enough cells in well	473	355
18	Exoc3l4	1	0.17	enough cells in well	215	93.2
19	Pfdn4	1	0.02	enough cells in well	227	196
20	Tmem132d	1	0.94	enough cells in well	240	200
21	Bora	1	0.15	enough cells in well	192	196
22	Fads3	1	-0.89	enough cells in well	182	89.8

Targets listed so far whose target name begins with P or p (3):
gene	pool no.	Tnf reporter robust z-score	fewer than 50 cells in well	Tnf reporter intensity, replicate 1	Tnf reporter intensity, replicate 2
Pals2	1	1.85	enough cells in well	311	282
Pals2	2	0.29	enough cells in well	202	142
Pfdn4	1	0.02	enough cells in well	227	196

Continued:
no.	gene	pool no.	Tnf reporter robust z-score	fewer than 50 cells in well	Tnf reporter intensity, replicate 1	Tnf reporter intensity, replicate 2
23	Tbcd	1	-0.28	enough cells in well	242	102
24	A330008L17Rik	1	-0.48	enough cells in well	144	128
25	Dmc1	1	-0.21	enough cells in well	239	169
26	Samtor	1	-0.37	enough cells in well	192	167
27	Pdgfrl	1	-0.8	enough cells in well	173	136
28	Sla	1	0.29	enough cells in well	310	232
29	Or4c29	1	-2.25 (active)	enough cells in well	52.5	62.2
30	Batf	1	1.75	enough cells in well	213	283
31	Stfa3	1	1.26	enough cells in well	159	127
32	Or4p22	1	0.66	enough cells in well	211	199
33	Tpsab1	1	-1.07	enough cells in well	152	67.9
34	Icam4	1	-0.81	enough cells in well	123	107
35	Jkamp	1	4.77 (active)	enough cells in well	338	225
36	5730455P16Rik	1	1.13	enough cells in well	203	235
37	Kcnc3	1	-0.08	enough cells in well	229	149
38	Gas2	1	-0.32	enough cells in well	204	233
39	Dnttip2	1	-0.04	enough cells in well	204	74
40	Fam168a	1	0.91	enough cells in well	266	275
41	Bsnd	1	-0.77	enough cells in well	97.1	134
42	Dusp19	1	-1.46 (active)	enough cells in well	112	110
43	Rpap1	1	0.22	enough cells in well	142	134
44	Vmn1r80	1	-0.91	enough cells in well	83.8	82.5
45	Gm38410	1	-1.83 (active)	enough cells in well	54.8	86.4
46	Zfp438	1	0.03	enough cells in well	214	203
47	Sult1b1	1	0.52	enough cells in well	354	230
48	Trim11	1		fewer than 50 cells per well; well left out of calls	60.3	69.7
49	Runx1	1	-1.05	enough cells in well	75.3	89.5
50	Nrap	1	1.13	enough cells in well	237	226
51	Tub	1	-0.05	enough cells in well	209	246
52	Srp9	1	-0.33	enough cells in well	80.7	96
53	Eml4	1		fewer than 50 cells per well; well left out of calls	132	101
54	Otud5	1	-1.23	enough cells in well	113	66.5
55	Hemgn	1	-0.77	enough cells in well	190	116
56	Fam53c	1		fewer than 50 cells per well; well left out of calls	145	59.4
57	Ang	1	0.35	enough cells in well	183	195
58	Padi1	1		fewer than 50 cells per well; well left out of calls	44.8	106
